In series [1] the test system is transcriptional activity of hTERT. Briefly: SEAP reporter assay of hTERT expression, PhTERT-SEAP (hTERT-BJ1). Format: cell-based, human. The procedure: (§1) Secreted alkaine phosphatase was used as the reporter system to monitor the transcriptional activity of hTERT. Here, about […] each were grown in 96-well plates and incubated at 37° C. for 24 h and changed with fresh media. Varying amounts of drugs were added and cells were incubated for another 24 h. Culture media were collected and heated at 65° C. for 10 min to inactivate heat-labile phosphatases. An equal amount of SEAP buffer (2 M diethanolamine, 1 mM MgCl2, and 20 mM […]) was added to the media and p-nitrophenyl phosphate was added to a final concentration of 12 mM. Absorptions at 405 nm were taken, and the rate of absorption increase is determined.
(§2) Culture media were changed every 3 days. […] The stable clones were selected using G418.
Background: A reporter such as luciferase makes a cellular process visible.

Series [2] shares this test system. In words: SEAP reporter assay of hTERT expression, PhTERT-SEAP (H1299). The format is cell-based, human. The procedure:
as §1, §2

As for `CC(C)CNc1cccc2c1C(=O)c1cccc(NCC(C)C)c1C2=O`, the SEAP/vibility in series [1] (2.8 μM) is recorded as 0.20; in series [1] (28 μM) it was 0.21; in series [1] (285 μM), 0.41; in series [2] (2.8 μM), 0.87; in series [2] (28 μM), 0.85; in series [2] (285 μM), 0.94.
For the molecule `O=C1c2cccc(NCCO)c2C(=O)c2cccc(NCCO)c21` [IVb, 1,5-Bis(ethanolamino)anthraquinone], the SEAP/vibility stood at 0.39 in series [1] (3.0 μM); 0.18 in series [1] (30 μM); 0.16 in series [1] (308 μM); 0.86 in series [2] (3.0 μM); 1.00 in series [2] (30 μM); 1.08 in series [2] (308 μM).
Take `O=C1c2c(O)ccc(O)c2C(=O)c2c(NCCNCCO)ccc(NCCNCCO)c21` [Mitoxantrone, reference compound]: the SEAP/vibility in series [1] (1.9 μM) amounted to 0.40; in series [1] (19 μM), 0.24; in series [1] (193 μM), 0.38; in series [2] (1.9 μM) it was 0.82; in series [2] (19 μM) it was 1.16; in series [2] (193 μM) it was 1.21.
In the case of `O=C1c2cccc(NC3CCCC3)c2C(=O)c2cccc(NC3CCCC3)c21` [IVo, 1,5-Bis(cyclopentaneamino)-anthraquinone], the SEAP/vibility in series [1] (2.3 μM) is reported as 1.00; in series [1] (23 μM) it was 0.91; in series [1] (238 μM) it was 1.15; in series [2] (2.3 μM) it was 1.01; in series [2] (23 μM), 1.04; in series [2] (238 μM) it was 2.45.
As to `CCCNc1cccc2c1C(=O)c1cccc(NCCC)c1C2=O` [IVf, 1,5-Bis(propylamino)anthraquinone], the SEAP/vibility was 0.18 in series [1] (3.1 μM); 0.20 in series [1] (31 μM); −0.16 in series [1] (310 μM); 1.02 in series [2] (3.1 μM); 1.03 in series [2] (31 μM); 1.93 in series [2] (310 μM).
Regarding `CCCCNc1cccc2c1C(=O)c1cccc(NCCCC)c1C2=O` [IVj, 1,5-Bis(butylamino)anthraquinone], the SEAP/vibility in series [1] (2.8 μM) amounted to 0.89; in series [1] (28 μM) it was 1.04; in series [1] (285 μM), 1.64; in series [2] (2.8 μM), 1.04; in series [2] (28 μM) it was 1.01; in series [2] (285 μM), 1.21.
Consider `O=C1c2cccc(NCCc3ccccc3)c2C(=O)c2cccc(NCCc3ccccc3)c21` [IVs, 1,5-Bis(phenylethylamino)-anthraquinone], for which the SEAP/vibility stood at 1.18 in series [1] (2.2 μM); 1.12 in series [1] (22 μM); 1.65 in series [1] (223 μM); 1.12 in series [2] (2.2 μM); 1.06 in series [2] (22 μM); 1.25 in series [2] (223 μM).
Take `NCCCNc1cccc2c1C(=O)c1cccc(NCCCN)c1C2=O`: the SEAP/vibility in series [1] (2.8 μM) is recorded as 1.22; in series [1] (28 μM), 15.35; in series [1] (283 μM), −28.94; in series [2] (2.8 μM), 1.20; in series [2] (28 μM) it was 1.39; in series [2] (283 μM) it was 2.34.
As for `O=C1c2cccc(NCCNCCO)c2C(=O)c2cccc(NCCNCCO)c21` [IVe, 1,5-Bis[2-(2-Aminoethylamino)ethanol]anthraquinone], the SEAP/vibility stood at 0.72 in series [1] (2.4 μM); 0.67 in series [1] (24 μM); 1.18 in series [1] (242 μM); 0.89 in series [2] (2.4 μM); 1.15 in series [2] (24 μM); 3.77 in series [2] (242 μM).
`CC(C)Nc1cccc2c1C(=O)c1cccc(NC(C)C)c1C2=O` [IVc, 1,5-Bis(isopropylamino)anthraquinone]: the SEAP/vibility in series [1] (3.1 μM) is listed as 0.32; in series [1] (31 μM), 0.25; in series [1] (310 μM) it was −0.02; in series [2] (3.1 μM) it was 0.82; in series [2] (31 μM) it was 0.84; in series [2] (310 μM), 1.32.
With `O=C1c2cccc(NCCCCO)c2C(=O)c2cccc(NCCCCO)c21` [IVk, 1,5-Bis(butanolamino-)-anthraquinone], the SEAP/vibility was 1.13 in series [1] (2.6 μM); 1.12 in series [1] (26 μM); 1.39 in series [1] (265 μM); 0.78 in series [2] (2.6 μM); 0.65 in series [2] (26 μM); 1.65 in series [2] (265 μM).
For `CCNc1cccc2c1C(=O)c1cccc(NCC)c1C2=O` [IVa, 1,5-Bis(ethylamino)anthraquinone], the SEAP/vibility in series [1] (3.3 μM) amounted to 0.94; in series [1] (33 μM), 1.00; in series [1] (339 μM), 0.67; in series [2] (3.3 μM), 1.01; in series [2] (33 μM), 0.97; in series [2] (339 μM), 0.91.
Take `CN(C)CCNc1cccc2c1C(=O)c1cccc(NCCN(C)C)c1C2=O` [IVd, 1,5-Bis(2-dimethylaminoethylamino)anthraquinone]: the SEAP/vibility is 0.12 in series [1] (2.6 μM); −0.19 in series [1] (26 μM); −3.77 in series [1] (262 μM); 0.95 in series [2] (2.6 μM); 0.67 in series [2] (26 μM); 1.39 in series [2] (262 μM).
For `O=C1c2cccc(NCCCO)c2C(=O)c2cccc(NCCCO)c21` [IVh, 1,5-Bis(propanolamino)anthraquinone], the SEAP/vibility in series [1] (2.8 μM) is given as 0.57; in series [1] (28 μM), 0.01; in series [1] (282 μM), −0.10; in series [2] (2.8 μM) it was 0.82; in series [2] (28 μM), 1.41; in series [2] (282 μM), 0.81.

The values are drawn from US20050009924A1 (priority 2003, published 2005).
